Results on eight substances are retold here after patent US20160114000A1 (Merck Sharp & Dohme, published 2016).

The nature of data set [1]: general procedure: Fmoc solid-phase peptide synthesis; Rink-amide PEG-PS resin, Champion (Biosearch Technologies, 0.28 mmol/g); Rink-amide PS resin (0.47 mmol/g); Rink-amide P; HATU/DIEA with HOBt; DIPC/HOAt for manual couplings. The settings on record: whole synthesis, scale of the general procedure 150 μmol; for final HPLC purity: Acquity UPLC Waters, BEH300 C4, 45 °C, 0.1% TFA.

A short description of data set [2]: Fmoc solid-phase peptide synthesis; MBHA polystyrene resin (0.21 mmol/g); HATU/DIEA with HOBt; DIPC/HOAt for manual couplings. As to conditions: whole synthesis, scale 0.15 mmol.

As for “Ac-His^1-Ala^2-Gln-Gly-Thr-Phe-Thr-Ser-Asp-Lys^10(γGlu-γGlu-C16)-Ser-Lys-Tyr-Leu-Asp^15-Glu^16-Arg-Ala-Ala-Gln-Asp-Phe^22-Val^23-Gln-Trp^25-Leu-Leu-Asp-Thr-CONH2”, in data set [1], the “final HPLC purity” value is on record as more than 90% pure and the isolated yield entry was “Yield 10%”.
For “His^1-D-Ser^2-Gln-Gly-Thr-Phe-Thr-S er-Asp-Lys^10(γGlu-C16)-Ser-Lys-Tyr-Leu-Asp-Val-Arg-Ala-Ala-Gln-Asp-Phe^22-Val^23-Gln-Trp-Leu-Leu-Asp-Thr-CONH2” the same measures were more than 90% pure and “Yield 27%”.
For “His^1-D-Ser^2-Gln-Gly-Thr-Phe-Thr-Ser-Asp-Lys^10(γGlu-C16)-Ser-Lys-Tyr-Leu-Asp-Ala-Arg-Ala-Ala-Gln-Asp-Phe^22-Val^23-Gln-Trp-Leu-Leu-Asp-Thr-CONH2” the same measures were 95% pure and “Yield 21%”.
Consider “His^1-D-Ser^2-Gln-Gly-Thr-Phe-Thr-Ser-Asp-Lys^10(γGlu-γGlu-C16)-Ser-Lys-Tyr-Leu-Asp-Ala-Arg-Ala-Ala-Gln-Asp-Phe^22-Val^23-Gln-Trp-Leu-Leu-Asp-Thr-CONH2”, for which, in data set [1], the “final HPLC purity” value is more than 90% pure and the isolated yield entry is given as “The yield was 15%”.
On to “His^1-D-Ser^2-Gln-Gly-Thr-Phe-Thr-Ser-Asp-Lys^10(γGlu-γGlu-C16)-Ser-Lys-Tyr-Leu-Asp-Glu-Arg-Ala-Ala-Gln-Asp-Phe^22-Val^23-Gln-Trp-Leu-Leu-Asp-Thr-CONH2”, for which the isolated mass in data set [2] is 15 mg.
Take “His^1-D-Ser^2-Gln-Gly-Thr-Phe-Thr-Ser-Asp-Lys^10(γGlu-γGlu-C16)-Ser-Lys-Tyr-Leu-Asp-Val-Arg-Ala-Ala-Gln-Asp-Phe^22-Val^23-Gln-Trp-Leu-Leu-Asp-Thr-CONH2”: in data set [1], the “final HPLC purity” value is on record as more than 90% pure and the isolated yield entry is “Yield 20%”.
As to “His^1-D-Ser^2-Gln-Gly-Thr-Phe-Thr-Ser-Asp-Lys^10(γGlu-γGlu-C16)-Ser-Lys-Tyr-Leu-Glu^15-Ala^16-Arg-Ala-Ala-Gln-Asp-Phe^22-Val^23-Gln-Trp^25-Leu-Leu-Asp-Thr-CONH2”, in data set [1], the “final HPLC purity” value is recorded as “the purity >90%” and the isolated yield result was “The yield was 18%”.
The matching figures for “His^1-D-Ser^2-Val-Gly-Thr-pFF^6-Thr-Ser-Asp-Lys^10(γGlu-γGlu-C16)-Ser-Lys-Tyr-Leu-Asp^15-Glu^16-Arg-Ala-Ala-Gln-Asp-Phe^22-Val^23-Gln-Trp^25-Leu-Leu-Asp-Thr-CONH2”: more than 90% pure and “Yield 12%”.
